# Experimental data reported in PMC11215771.
# The chains behind the UniProt entries cited, without tags or fusion partners. Where a name states a change or a piece, a line headed by the entry shows the natural chain unless it says otherwise. A line that says so, or that is headed by a name, gives the form on record, which may keep a tag or linker. Residues count along the entry.
# human BACE1 (β-site of APP cleaving enzyme 1), wild type, untagged, expressed in HEK293T cells (P56817, residues 46-501): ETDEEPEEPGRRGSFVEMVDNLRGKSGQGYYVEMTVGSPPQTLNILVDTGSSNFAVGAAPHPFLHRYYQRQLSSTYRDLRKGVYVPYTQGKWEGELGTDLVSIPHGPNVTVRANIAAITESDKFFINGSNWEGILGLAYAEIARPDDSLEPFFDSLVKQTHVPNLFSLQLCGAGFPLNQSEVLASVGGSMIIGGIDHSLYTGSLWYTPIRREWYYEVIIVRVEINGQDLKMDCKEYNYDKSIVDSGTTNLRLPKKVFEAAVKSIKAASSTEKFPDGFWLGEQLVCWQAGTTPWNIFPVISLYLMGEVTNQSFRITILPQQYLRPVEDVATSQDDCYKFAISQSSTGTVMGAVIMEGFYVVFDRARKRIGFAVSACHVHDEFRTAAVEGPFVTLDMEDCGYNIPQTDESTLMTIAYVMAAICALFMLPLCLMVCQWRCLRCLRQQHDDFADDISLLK
# human BACE1 D289N (proteolytically inactive variant), untagged, expressed in HEK293T cells (P56817-1, form named): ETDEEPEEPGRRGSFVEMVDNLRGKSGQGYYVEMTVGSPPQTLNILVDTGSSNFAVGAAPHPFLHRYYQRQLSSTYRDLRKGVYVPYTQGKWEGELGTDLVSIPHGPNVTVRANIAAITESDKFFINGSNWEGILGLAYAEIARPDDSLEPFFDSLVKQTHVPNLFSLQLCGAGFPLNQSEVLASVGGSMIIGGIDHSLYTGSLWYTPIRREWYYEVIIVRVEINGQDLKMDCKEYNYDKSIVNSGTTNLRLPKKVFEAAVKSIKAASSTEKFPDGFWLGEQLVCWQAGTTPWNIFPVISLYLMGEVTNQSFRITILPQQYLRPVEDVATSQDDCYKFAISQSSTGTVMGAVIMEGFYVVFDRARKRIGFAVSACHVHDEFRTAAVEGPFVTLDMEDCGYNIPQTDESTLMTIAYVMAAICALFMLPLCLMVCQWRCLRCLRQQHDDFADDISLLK
# These are yes or no findings as the source states them, for the method shown. In cells and extracts the contact can be indirect. Some binding calls cover weakened binding; strength is not graded here.
# Target: human BACE1 (β-site of APP cleaving enzyme 1), wild type, untagged, expressed in HEK293T cells (human) (UniProt P56817)
substance,measurement,value
"human BACE1 D289N (proteolytically inactive variant), untagged, expressed in HEK293T cells (from UniProt P56817-1 46-501) (enzyme)",binding,binds
